# This is one part of the list.
# Tests used:
# Assay in all cases: glycan array binding signal (z-score within array); higher = stronger binding
# Conditions in all cases: glycan notation: IUPAC condensed, linker removed
# [1] = target: Neu5Ac(a2-3)Gal(b1-4)GlcNAc(b1-2)Man
# Summary of the method: (§1)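 Glycan array data came from 3228 arrays in the Consortium for Functional Glycomics database, and only arrays with an available protein sequence were kept. Glycan names were put into IUPAC-condensed notation, and columns mapping to the same glycan were averaged. The binding signal is a within-array Z-score, averaged across arrays of one protein sequence run at different concentrations or buffers and across linkers. A negative Z-score can be read as non-binding.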
# [2] = target: Neu5Ac(a2-3)Gal(b1-4)GlcNAc(b1-2)Man(a1-3)[GlcNAc(b1-2)Man(b1-4)GlcNAc(b1-2)Man(a1-6)]Man(b1-4)GlcNAc(b1-4)GlcNAc
# Summary of the method: as §1
# [3] = target: Neu5Ac(a2-3)Gal(b1-4)GlcNAc(b1-2)Man(a1-3)[GlcNAc(b1-4)][Neu5Ac(a2-3)Gal(b1-4)GlcNAc(b1-2)Man(a1-6)]Man(b1-4)GlcNAc(b1-4)GlcNAc
# Summary of the method: as §1
# [4] = target: Neu5Ac(a2-3)Gal(b1-4)GlcNAc(b1-2)Man(a1-3)[Neu5Ac(a2-3)Gal(b1-4)GlcNAc(b1-2)Man(a1-6)]Man(b1-4)GlcNAc(b1-4)GlcNAc
# Summary of the method: as §1
# [5] = target: Neu5Ac(a2-3)Gal(b1-4)GlcNAc(b1-2)Man(a1-3)[Neu5Ac(a2-3)Gal(b1-4)GlcNAc(b1-2)Man(a1-6)]Man(b1-4)GlcNAc(b1-4)[Fuc(a1-6)]GlcNAc
# Summary of the method: as §1
# [6] = target: Neu5Ac(a2-3)Gal(b1-4)GlcNAc(b1-2)Man(a1-3)[Neu5Ac(a2-6)Gal(b1-4)GlcNAc(b1-2)Man(a1-6)]Man(b1-4)GlcNAc(b1-4)GlcNAc
# Summary of the method: as §1
# [7] = target: Neu5Ac(a2-3)Gal(b1-4)GlcNAc(b1-2)[Neu5Ac(a2-3)Gal(b1-4)GlcNAc(b1-4)]Man(a1-3)[GlcNAc(b1-4)][Neu5Ac(a2-3)Gal(b1-4)GlcNAc(b1-2)[Neu5Ac(a2-3)Gal(b1-4)GlcNAc(b1-6)]Man(a1-6)]Man(b1-4)GlcNAc(b1-4)GlcNAc
# Summary of the method: as §1
# [8] = target: Neu5Ac(a2-3)Gal(b1-4)GlcNAc(b1-2)[Neu5Ac(a2-3)Gal(b1-4)GlcNAc(b1-4)]Man(a1-3)[GlcNAc(b1-4)][Neu5Ac(a2-3)Gal(b1-4)GlcNAc(b1-4)Man(a1-6)]Man(b1-4)GlcNAc(b1-4)GlcNAc
# Summary of the method: as §1
# [9] = target: Neu5Ac(a2-3)Gal(b1-4)GlcNAc(b1-2)[Neu5Ac(a2-3)Gal(b1-4)GlcNAc(b1-6)]Man(a1-6)[Neu5Ac(a2-3)Gal(b1-4)GlcNAc(b1-2)Man(a1-3)][GlcNAc(b1-4)]Man(b1-4)GlcNAc(b1-4)GlcNAc
# Summary of the method: as §1
# [10] = target: Neu5Ac(a2-3)Gal(b1-4)GlcNAc(b1-3)Gal
# Summary of the method: as §1
# [11] = target: Neu5Ac(a2-3)Gal(b1-4)GlcNAc(b1-3)Gal(b1-3)GlcNAc
# Summary of the method: as §1
# [12] = target: Neu5Ac(a2-3)Gal(b1-4)GlcNAc(b1-3)Gal(b1-4)GlcNAc
# Summary of the method: as §1
# [13] = target: Neu5Ac(a2-3)Gal(b1-4)GlcNAc(b1-3)Gal(b1-4)GlcNAc(b1-2)Man(a1-3)[Neu5Ac(a2-3)Gal(b1-4)GlcNAc(b1-3)Gal(b1-4)GlcNAc(b1-2)Man(a1-6)]Man(b1-4)GlcNAc(b1-4)GlcNAc
# Summary of the method: as §1
# [14] = target: Neu5Ac(a2-3)Gal(b1-4)GlcNAc(b1-3)Gal(b1-4)GlcNAc(b1-3)Gal(b1-4)GlcNAc
# Summary of the method: as §1
# [15] = target: Neu5Ac(a2-3)Gal(b1-4)GlcNAc(b1-3)Gal(b1-4)GlcNAc(b1-3)Gal(b1-4)GlcNAc(b1-2)Man(a1-3)[Neu5Ac(a2-3)Gal(b1-4)GlcNAc(b1-3)Gal(b1-4)GlcNAc(b1-3)Gal(b1-4)GlcNAc(b1-2)Man(a1-6)]GalNAc
# Summary of the method: as §1
# [16] = target: Neu5Ac(a2-3)Gal(b1-4)GlcNAc(b1-3)Gal(b1-4)GlcNAc(b1-3)GalNAc
# Summary of the method: as §1
# [17] = target: Neu5Ac(a2-3)Gal(b1-4)GlcNAc(b1-3)Gal(b1-4)GlcNAc(b1-3)[Neu5Ac(a2-3)Gal(b1-4)GlcNAc(b1-3)Gal(b1-4)GlcNAc(b1-6)]GalNAc
# Summary of the method: as §1
# [18] = target: Neu5Ac(a2-3)Gal(b1-4)GlcNAc(b1-3)Gal(b1-4)GlcNAc(b1-6)[Gal(b1-3)]GalNAc
# Summary of the method: as §1
# [19] = target: Neu5Ac(a2-3)Gal(b1-4)GlcNAc(b1-3)Gal(b1-4)[Fuc(a1-3)]GlcNAc
# Summary of the method: as §1
# [20] = target: Neu5Ac(a2-3)Gal(b1-4)GlcNAc(b1-3)GalNAc
# Summary of the method: as §1
# [21] = target: Neu5Ac(a2-3)Gal(b1-4)GlcNAc(b1-3)[Neu5Ac(a2-3)Gal(b1-4)GlcNAc(b1-6)]GalNAc
# Summary of the method: as §1
# [22] = target: Neu5Ac(a2-3)Gal(b1-4)GlcNAc(b1-6)GalNAc
# Summary of the method: as §1
# [23] = target: Neu5Ac(a2-3)Gal(b1-4)GlcNAc(b1-6)[Gal(b1-3)]GalNAc
# Summary of the method: as §1
# [24] = target: Neu5Ac(a2-3)Gal(b1-4)GlcNAc(b1-6)[Neu5Ac(a2-3)Gal(b1-3)]GalNAc
# Summary of the method: as §1
# [25] = target: Neu5Ac(a2-3)Gal(b1-4)GlcNAc6S
# Summary of the method: as §1
# [26] = target: Neu5Ac(a2-3)Gal(b1-4)[Fuc(a1-3)]GlcNAc
# Summary of the method: as §1
# [27] = target: Neu5Ac(a2-3)Gal(b1-4)[Fuc(a1-3)]GlcNAc(b1-2)Man
# Summary of the method: as §1
# [28] = target: Neu5Ac(a2-3)Gal(b1-4)[Fuc(a1-3)]GlcNAc(b1-3)Gal
# Summary of the method: as §1
# [29] = target: Neu5Ac(a2-3)Gal(b1-4)[Fuc(a1-3)]GlcNAc(b1-3)Gal(b1-4)GlcNAc
# Summary of the method: as §1
# [30] = target: Neu5Ac(a2-3)Gal(b1-4)[Fuc(a1-3)]GlcNAc(b1-3)Gal(b1-4)[Fuc(a1-3)]GlcNAc(b1-3)Gal(b1-4)[Fuc(a1-3)]GlcNAc
# Summary of the method: as §1
binder,measurement,setting,value
KISKRILTGKK [NK11 (Sus scrofa)],glycan array binding signal (z-score),[1],1.03
same,glycan array binding signal (z-score),[2],-0.419
same,glycan array binding signal (z-score),[3],0.628
same,glycan array binding signal (z-score),[4],-0.485
same,glycan array binding signal (z-score),[5],2.3
same,glycan array binding signal (z-score),[6],0.387
same,glycan array binding signal (z-score),[7],-0.111
same,glycan array binding signal (z-score),[8],0.32
same,glycan array binding signal (z-score),[9],0.405
same,glycan array binding signal (z-score),[10],-0.148
same,glycan array binding signal (z-score),[11],0.481
same,glycan array binding signal (z-score),[12],0.782
same,glycan array binding signal (z-score),[13],-0.199
same,glycan array binding signal (z-score),[14],0.099
same,glycan array binding signal (z-score),[15],0.541
same,glycan array binding signal (z-score),[16],0.887
same,glycan array binding signal (z-score),[17],0.509
same,glycan array binding signal (z-score),[18],-1.6
same,glycan array binding signal (z-score),[19],-0.352
same,glycan array binding signal (z-score),[20],0.319
same,glycan array binding signal (z-score),[21],1.38
same,glycan array binding signal (z-score),[22],-0.366
same,glycan array binding signal (z-score),[23],1.1
same,glycan array binding signal (z-score),[24],-1.16
same,glycan array binding signal (z-score),[25],0.656
same,glycan array binding signal (z-score),[26],-0.126
same,glycan array binding signal (z-score),[27],-0.124
same,glycan array binding signal (z-score),[28],0.515
same,glycan array binding signal (z-score),[29],1.26
same,glycan array binding signal (z-score),[30],-0.24

# Reprinted from the results shown for reference:
binder,measurement,setting,value
KISKRILTGKK [NK11 (Sus scrofa)],glycan array binding signal (z-score),[5],2.3
same,glycan array binding signal (z-score),[6],0.387
same,glycan array binding signal (z-score),[7],-0.111
same,glycan array binding signal (z-score),[8],0.32
same,glycan array binding signal (z-score),[9],0.405
same,glycan array binding signal (z-score),[10],-0.148
same,glycan array binding signal (z-score),[11],0.481
same,glycan array binding signal (z-score),[12],0.782
same,glycan array binding signal (z-score),[13],-0.199
